Data from paper doi:10.1101/2019.12.20.882282.
Results are given in words; binding and its absence hold for the method and conditions named. Binding seen in cells or lysates may run through a third protein. These calls come from enrichment with a bait or labelling near it, and not all partners need be listed. A no says only that the protein was not detected with the bait.

Protein sequences, listed by entry. Tags and fused reporters are not part of them.
UniProt Q91YE5: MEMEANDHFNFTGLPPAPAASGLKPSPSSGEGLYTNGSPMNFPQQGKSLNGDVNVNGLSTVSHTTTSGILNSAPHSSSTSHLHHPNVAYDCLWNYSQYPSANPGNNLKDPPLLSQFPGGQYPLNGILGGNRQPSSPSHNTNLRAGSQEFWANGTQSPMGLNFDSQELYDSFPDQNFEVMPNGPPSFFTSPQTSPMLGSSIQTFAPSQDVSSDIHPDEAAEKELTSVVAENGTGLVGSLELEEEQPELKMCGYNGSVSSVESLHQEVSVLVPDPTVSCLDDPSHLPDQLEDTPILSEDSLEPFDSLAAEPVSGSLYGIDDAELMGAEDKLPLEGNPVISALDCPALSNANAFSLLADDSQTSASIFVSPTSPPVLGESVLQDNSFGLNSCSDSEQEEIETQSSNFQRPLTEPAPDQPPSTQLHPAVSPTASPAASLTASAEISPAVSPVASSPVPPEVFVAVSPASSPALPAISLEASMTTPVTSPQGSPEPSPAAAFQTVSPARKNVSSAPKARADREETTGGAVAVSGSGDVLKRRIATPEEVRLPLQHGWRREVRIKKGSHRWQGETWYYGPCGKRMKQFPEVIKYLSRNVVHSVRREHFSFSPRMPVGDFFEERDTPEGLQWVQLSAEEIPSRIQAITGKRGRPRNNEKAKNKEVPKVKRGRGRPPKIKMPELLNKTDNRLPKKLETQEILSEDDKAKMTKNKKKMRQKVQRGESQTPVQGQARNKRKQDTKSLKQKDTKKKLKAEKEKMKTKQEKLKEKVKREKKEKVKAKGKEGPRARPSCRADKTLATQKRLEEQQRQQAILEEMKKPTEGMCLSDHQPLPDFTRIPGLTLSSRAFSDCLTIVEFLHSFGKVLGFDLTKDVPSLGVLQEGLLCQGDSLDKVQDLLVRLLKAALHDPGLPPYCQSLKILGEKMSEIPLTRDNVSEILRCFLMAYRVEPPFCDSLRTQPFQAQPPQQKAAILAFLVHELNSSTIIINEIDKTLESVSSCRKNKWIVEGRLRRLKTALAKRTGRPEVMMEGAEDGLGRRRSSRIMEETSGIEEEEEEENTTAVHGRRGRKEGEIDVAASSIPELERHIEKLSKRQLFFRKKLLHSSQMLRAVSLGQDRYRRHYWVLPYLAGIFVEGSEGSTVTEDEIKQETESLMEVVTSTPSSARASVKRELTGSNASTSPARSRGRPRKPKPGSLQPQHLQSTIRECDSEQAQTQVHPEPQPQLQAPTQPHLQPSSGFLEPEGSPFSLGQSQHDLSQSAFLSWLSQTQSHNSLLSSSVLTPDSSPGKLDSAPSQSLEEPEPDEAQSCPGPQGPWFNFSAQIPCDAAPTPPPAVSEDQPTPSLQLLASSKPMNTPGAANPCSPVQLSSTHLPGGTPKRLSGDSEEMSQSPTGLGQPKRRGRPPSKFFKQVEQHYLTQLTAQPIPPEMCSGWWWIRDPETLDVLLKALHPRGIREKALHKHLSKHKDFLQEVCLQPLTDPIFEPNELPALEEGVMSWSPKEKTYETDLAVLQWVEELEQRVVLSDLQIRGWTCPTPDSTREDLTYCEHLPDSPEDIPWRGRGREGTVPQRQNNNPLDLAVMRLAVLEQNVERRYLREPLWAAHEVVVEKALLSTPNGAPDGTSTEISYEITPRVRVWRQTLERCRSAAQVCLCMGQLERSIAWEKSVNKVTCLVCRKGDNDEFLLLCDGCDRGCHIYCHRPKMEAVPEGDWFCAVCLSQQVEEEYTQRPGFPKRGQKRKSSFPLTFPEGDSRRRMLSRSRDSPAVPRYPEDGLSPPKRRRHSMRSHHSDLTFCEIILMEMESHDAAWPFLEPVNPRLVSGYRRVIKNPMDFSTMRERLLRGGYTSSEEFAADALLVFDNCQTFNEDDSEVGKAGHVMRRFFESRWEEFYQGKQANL
UniProt P13864: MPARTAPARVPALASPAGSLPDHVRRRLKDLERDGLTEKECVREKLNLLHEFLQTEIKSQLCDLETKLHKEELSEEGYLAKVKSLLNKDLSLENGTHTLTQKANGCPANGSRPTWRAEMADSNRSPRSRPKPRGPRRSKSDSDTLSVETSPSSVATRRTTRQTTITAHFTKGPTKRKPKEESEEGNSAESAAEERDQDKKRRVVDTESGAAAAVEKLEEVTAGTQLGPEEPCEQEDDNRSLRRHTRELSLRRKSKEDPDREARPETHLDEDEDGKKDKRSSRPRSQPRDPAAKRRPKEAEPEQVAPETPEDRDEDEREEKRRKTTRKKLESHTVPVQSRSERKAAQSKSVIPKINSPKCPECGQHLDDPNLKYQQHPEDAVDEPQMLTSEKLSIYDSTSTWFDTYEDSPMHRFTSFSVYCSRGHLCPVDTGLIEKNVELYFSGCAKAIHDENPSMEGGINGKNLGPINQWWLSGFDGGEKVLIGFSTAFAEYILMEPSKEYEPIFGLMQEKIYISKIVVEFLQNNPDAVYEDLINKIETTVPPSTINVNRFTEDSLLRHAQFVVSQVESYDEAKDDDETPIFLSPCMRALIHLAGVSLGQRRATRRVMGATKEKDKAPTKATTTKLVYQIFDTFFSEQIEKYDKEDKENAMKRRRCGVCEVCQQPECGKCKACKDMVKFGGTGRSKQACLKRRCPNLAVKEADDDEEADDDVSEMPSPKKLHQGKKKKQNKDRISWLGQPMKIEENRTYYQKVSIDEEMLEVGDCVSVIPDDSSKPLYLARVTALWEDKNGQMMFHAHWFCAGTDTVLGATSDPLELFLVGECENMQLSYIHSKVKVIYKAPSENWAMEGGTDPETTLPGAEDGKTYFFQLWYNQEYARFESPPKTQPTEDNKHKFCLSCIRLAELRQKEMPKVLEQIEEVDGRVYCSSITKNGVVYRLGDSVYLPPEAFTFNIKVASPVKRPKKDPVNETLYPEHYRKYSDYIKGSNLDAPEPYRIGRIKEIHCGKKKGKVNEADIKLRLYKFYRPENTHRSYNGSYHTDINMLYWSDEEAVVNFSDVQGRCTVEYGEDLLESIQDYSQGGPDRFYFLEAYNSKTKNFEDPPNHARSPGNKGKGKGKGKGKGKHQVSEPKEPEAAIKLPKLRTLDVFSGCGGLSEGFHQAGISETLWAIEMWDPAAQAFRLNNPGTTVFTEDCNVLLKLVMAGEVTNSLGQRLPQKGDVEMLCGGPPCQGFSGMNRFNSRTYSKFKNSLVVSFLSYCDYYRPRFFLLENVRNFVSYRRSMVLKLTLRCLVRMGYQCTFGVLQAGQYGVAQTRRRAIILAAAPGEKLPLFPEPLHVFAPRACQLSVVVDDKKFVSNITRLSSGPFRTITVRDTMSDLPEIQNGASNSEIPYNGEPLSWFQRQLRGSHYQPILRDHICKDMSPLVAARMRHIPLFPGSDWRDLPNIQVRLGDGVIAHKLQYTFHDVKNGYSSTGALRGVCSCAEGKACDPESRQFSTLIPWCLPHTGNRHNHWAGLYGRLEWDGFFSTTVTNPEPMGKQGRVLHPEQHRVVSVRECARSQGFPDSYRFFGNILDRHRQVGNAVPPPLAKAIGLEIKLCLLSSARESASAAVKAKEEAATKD
UniProt P11103: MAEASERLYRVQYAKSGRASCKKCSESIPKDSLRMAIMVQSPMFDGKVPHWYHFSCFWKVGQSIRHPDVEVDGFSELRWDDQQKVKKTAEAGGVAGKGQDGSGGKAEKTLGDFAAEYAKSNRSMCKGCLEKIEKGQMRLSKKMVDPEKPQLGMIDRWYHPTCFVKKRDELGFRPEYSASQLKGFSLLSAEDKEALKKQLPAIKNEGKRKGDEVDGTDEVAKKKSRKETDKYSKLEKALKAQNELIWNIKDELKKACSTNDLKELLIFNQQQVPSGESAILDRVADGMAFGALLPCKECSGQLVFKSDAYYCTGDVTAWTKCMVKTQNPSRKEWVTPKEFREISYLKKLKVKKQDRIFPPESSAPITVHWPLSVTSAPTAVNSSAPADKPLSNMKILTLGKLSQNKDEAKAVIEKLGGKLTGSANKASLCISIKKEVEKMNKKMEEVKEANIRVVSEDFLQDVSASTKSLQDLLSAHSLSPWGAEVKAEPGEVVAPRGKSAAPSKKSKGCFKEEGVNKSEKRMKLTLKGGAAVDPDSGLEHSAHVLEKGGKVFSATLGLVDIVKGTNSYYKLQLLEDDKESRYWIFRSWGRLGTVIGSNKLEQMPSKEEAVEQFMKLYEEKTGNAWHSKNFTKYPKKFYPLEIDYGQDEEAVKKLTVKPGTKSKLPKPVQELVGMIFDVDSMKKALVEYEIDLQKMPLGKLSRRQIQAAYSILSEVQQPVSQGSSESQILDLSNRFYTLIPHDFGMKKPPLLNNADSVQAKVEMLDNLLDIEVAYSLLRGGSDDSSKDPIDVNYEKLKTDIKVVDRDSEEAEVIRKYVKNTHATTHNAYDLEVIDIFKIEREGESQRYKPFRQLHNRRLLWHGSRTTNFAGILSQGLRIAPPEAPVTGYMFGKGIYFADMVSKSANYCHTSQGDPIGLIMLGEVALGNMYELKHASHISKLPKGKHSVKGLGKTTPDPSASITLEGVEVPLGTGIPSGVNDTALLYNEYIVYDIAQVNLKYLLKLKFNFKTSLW
UniProt Q9CW03: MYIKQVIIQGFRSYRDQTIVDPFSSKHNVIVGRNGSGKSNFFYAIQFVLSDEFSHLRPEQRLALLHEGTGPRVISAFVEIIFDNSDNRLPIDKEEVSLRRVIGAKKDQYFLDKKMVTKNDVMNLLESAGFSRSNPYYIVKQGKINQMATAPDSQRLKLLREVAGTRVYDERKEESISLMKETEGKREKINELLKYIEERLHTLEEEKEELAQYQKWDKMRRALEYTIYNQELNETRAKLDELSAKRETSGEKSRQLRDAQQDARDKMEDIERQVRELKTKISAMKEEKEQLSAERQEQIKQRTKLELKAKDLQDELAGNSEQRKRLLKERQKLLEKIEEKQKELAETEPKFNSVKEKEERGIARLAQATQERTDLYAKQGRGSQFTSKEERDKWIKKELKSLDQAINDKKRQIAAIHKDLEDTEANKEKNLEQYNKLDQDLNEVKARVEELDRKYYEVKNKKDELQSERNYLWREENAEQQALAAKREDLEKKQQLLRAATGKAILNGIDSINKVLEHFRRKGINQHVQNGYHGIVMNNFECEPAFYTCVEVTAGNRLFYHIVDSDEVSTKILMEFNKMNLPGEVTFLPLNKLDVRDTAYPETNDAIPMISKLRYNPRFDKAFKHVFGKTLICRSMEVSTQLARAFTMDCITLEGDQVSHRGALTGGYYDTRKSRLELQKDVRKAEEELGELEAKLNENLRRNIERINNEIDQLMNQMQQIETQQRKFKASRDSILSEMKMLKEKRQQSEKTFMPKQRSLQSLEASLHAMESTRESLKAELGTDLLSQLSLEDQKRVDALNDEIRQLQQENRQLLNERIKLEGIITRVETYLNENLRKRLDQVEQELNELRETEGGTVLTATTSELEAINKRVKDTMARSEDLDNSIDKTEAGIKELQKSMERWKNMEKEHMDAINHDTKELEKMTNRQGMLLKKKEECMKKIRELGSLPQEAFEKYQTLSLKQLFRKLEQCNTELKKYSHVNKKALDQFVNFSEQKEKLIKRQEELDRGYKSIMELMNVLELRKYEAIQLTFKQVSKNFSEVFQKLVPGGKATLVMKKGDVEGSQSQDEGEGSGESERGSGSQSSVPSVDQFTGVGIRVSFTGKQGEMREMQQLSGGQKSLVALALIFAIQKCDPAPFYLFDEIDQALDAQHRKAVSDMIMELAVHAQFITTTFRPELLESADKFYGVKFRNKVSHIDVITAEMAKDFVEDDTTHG

B1: SMC1a (protein, UniProt Q9CU62 1-1233)
chain: MGFLKLIEIENFKSYKGRQIIGPFQRFTAIIGPNGSGKSNLMDAISFVLGEKTSNLRVKTLRDLIHGAPVGKPAANRAFVSMVYSEEGAEDRTFARVIVGGSSEYKINNKVVQLHEYSEELEKLGILIKARNFLVFQGAVESIAMKNPKERTALFEEISRSGELAQEYDKRKKEMVKAEEDTQFNYHRKKNIAAERKEAKQEKEEADRYQRLKDEVVRAQVQLQLFKLYHNEVEIEKLNKELASKNKEIEKDKKRMDKVEDELKEKKKELGKMMREQQQIEKEIKEKDSELNQKRPQYIKAKENTSHKIKKLEAAKKSLQNAQKHYKKRKGDMDELEKEMLSVEKARQEFEERMEEESQSQGRDLTLEENQVKKYHRLKEEASKRAATLAQELEKFNRDQKADQDRLDLEERKKVETEAKIKQKLREIEENQKRIEKLEEYITTSKQSLEEQKKLEGELTEEVEMAKRRIDEINKELNQVMEQLGDARIDRQESSRQQRKAEIMESIKRLYPGSVYGRLIDLCQPTQKKYQIAVTKVLGKNMDAIIVDSEKTGRDCIQYIKEQRGEPETFLPLDYLEVKPTDEKLRELKGAKLVIDVIRYEPPHIKKALQYACGNALVCDNVEDARRIAFGGHQRHKTVALDGTLFQKSGVISGGASDLKAKARRWDEKAVDKLKEKKERLTEELKEQMKAKRKEAELRQVQSQAHGLQMRLKYSQSDLEQTKTRHLALNLQEKSKLESELANFGPRINDIKRIIQSREREMKDLKEKMNQVEDEVFEEFCREIGVRNIREFEEEKVKRQNEIAKKRLEFENQKTRLGIQLDFEKNQLKEDQDKVHMWEQTVKKDENEIEKLKKEEQRHMKIIDETMAQLQDLKNQHLAKKSEVNDKNHEMEEIRKKLGGANKEMTHLQKEVTAIETKLEQKRSDRHNLLQACKMQDIKLPLSKGTMDDISQEEGSSQGEESVSGSQRTSSIYAREALIEIDYGDLCEDLKDAQAEEEIKQEMNTLQQKLNEQQSVLQRIAAPNMKAMEKLESVRDKFQETSDEFEAARKRAKKAKQAFEQIKKERFDRFNACFESVATNIDEIYKALSRNSSAQAFLGPENPEEPYLDGINYNCVAPGKRFRPMDNLSGGEKTVAALALLFAIHSYKPAPFFVLDEIDAALDNTNIGKVANYIKEQSTCNFQAIVISLKEEFYTKAESLIGVYPEQGDCVISKVLTFDLTKYPDANPNPNEQ
B2: CTCF (protein, UniProt Q61164 1-736)
chain: MEGEAVEAIVEESETFIKGKERKTYQRRREGGQEEDACHLPQNQTDGGEVVQDVNSSVQMVMMEQLDPTLLQMKTEVMEGTVAPEAEAAVDDTQIITLQVVNMEEQPINIGELQLVQVPVPVTVPVATTSVEELQGAYENEVSKEGLAESEPMICHTLPLPEGFQVVKVGANGEVETLEQGELPPQEDSSWQKDPDYQPPAKKTKKTKKSKLRYTEEGKDVDVSVYDFEEEQQEGLLSEVNAEKVVGNMKPPKPTKIKKKGVKKTFQCELCSYTCPRRSNLDRHMKSHTDERPHKCHLCGRAFRTVTLLRNHLNTHTGTRPHKCPDCDMAFVTSGELVRHRRYKHTHEKPFKCSMCDYASVEVSKLKRHIRSHTGERPFQCSLCSYASRDTYKLKRHMRTHSGEKPYECYICHARFTQSGTMKMHILQKHTENVAKFHCPHCDTVIARKSDLGVHLRKQHSYIEQGKKCRYCDAVFHERYALIQHQKSHKNEKRFKCDQCDYACRQERHMIMHKRTHTGEKPYACSHCDKTFRQKQLLDMHFKRYHDPNFVPAAFVCSKCGKTFTRRNTMARHADNCAGPDGVEGENGGETKKSKRGRKRKMRSKKEDSSDSEENAEPDLDDNEEEEEPAVEIEPEPEPQPQPPPPPQPVAPAPPPAKKRRGRPPGRTNQPKQNQPTAIIQVEDQNTGAIENIIVEVKKEPDAEPAEGEEEEAQAATTDAPNGDLTPEMILSMMDR

Target: FLAG-HA-tagged TIP5 (F/H-TIP5) (mouse (endogenous in 129/OlaHsd mouse ESCs)) (UniProt Q91YE5)
Assay: affinity purification with mass spectrometry

Molecule | binding
DHX9 (from UniProt O70133 1-1380) | binds
DNA topoisomerase 2A (TOP2A) (from UniProt Q01320 1-1528) | binds
DNMT1 (from UniProt P13864 1-1620) | binds
PARP1 (from UniProt P11103 1-1013) | binds
SNF2H (SMARCA5) (from UniProt Q91ZW3 1-1051) | binds
structural maintenance of chromosomes protein 3 (SMC3) (from UniProt Q9CW03 1-1217) | binds
B1 | binds
B2 | no binding
